The values that follow come from article PMC7552406.

Chains of the proteins cited; added tags and fusions are not shown. Residues count along the entry.
UniProt Q07021, residues 74-282: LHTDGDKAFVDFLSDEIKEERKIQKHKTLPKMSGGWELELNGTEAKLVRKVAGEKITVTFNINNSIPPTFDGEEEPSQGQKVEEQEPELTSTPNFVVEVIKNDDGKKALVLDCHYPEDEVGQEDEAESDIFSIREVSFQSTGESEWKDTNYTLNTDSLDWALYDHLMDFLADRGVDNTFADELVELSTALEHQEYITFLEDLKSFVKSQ

Common to all, as to experiment: co-IP; immunopurification of FLAG-RECQ4 complexes from whole cell extracts of stable RECQ4 KD HEK293 cells expressing FLAG-RECQ4 WT, ID or P466L; lysis in 50 mM Tris-HCl pH 7.4, 150 mM NaCl, 1 mM EDTA, 0.5% Triton X-100, 10% glycerol; Western blot for p32, TWINKLE and TFAM
(A western blot detects proteins with antibodies after separation by electrophoresis.)

The target in test [1] is T1, FLAG-tagged RECQ4 wildtype (WT) (human) (UniProt O94761).
T1 sequence: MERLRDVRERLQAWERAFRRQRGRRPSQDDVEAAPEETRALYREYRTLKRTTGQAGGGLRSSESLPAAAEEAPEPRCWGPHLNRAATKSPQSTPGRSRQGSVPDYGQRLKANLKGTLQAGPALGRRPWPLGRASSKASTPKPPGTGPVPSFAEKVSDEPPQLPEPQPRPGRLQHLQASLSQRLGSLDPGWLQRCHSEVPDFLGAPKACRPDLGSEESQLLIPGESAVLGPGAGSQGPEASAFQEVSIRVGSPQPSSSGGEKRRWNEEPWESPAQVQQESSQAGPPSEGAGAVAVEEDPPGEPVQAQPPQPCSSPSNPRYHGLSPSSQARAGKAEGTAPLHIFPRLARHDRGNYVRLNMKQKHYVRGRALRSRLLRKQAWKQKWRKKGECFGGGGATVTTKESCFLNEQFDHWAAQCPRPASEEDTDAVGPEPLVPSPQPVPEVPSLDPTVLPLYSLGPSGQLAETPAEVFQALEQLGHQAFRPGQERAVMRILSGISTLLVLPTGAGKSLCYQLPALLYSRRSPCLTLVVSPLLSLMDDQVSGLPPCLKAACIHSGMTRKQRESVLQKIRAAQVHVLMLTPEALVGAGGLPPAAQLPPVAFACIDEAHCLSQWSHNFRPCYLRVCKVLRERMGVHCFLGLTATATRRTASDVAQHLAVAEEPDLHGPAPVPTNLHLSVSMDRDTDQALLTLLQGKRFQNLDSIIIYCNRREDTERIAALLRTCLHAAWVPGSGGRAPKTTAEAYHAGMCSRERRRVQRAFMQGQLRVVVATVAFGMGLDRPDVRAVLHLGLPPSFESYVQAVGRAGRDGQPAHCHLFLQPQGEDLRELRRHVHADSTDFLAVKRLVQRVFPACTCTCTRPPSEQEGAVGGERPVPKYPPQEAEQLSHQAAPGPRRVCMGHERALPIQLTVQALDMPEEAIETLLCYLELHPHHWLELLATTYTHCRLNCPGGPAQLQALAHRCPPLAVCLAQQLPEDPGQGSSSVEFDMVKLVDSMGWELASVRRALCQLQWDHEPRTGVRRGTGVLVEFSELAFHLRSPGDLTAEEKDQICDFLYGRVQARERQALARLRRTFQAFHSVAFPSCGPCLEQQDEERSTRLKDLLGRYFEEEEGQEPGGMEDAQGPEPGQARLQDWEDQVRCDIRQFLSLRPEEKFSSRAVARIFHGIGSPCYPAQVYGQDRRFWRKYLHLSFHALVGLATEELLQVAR

Test [2] addresses T2, FLAG-RECQ4 ID mutant, del(A420-A463) (human) (UniProt O94761).
T2 sequence: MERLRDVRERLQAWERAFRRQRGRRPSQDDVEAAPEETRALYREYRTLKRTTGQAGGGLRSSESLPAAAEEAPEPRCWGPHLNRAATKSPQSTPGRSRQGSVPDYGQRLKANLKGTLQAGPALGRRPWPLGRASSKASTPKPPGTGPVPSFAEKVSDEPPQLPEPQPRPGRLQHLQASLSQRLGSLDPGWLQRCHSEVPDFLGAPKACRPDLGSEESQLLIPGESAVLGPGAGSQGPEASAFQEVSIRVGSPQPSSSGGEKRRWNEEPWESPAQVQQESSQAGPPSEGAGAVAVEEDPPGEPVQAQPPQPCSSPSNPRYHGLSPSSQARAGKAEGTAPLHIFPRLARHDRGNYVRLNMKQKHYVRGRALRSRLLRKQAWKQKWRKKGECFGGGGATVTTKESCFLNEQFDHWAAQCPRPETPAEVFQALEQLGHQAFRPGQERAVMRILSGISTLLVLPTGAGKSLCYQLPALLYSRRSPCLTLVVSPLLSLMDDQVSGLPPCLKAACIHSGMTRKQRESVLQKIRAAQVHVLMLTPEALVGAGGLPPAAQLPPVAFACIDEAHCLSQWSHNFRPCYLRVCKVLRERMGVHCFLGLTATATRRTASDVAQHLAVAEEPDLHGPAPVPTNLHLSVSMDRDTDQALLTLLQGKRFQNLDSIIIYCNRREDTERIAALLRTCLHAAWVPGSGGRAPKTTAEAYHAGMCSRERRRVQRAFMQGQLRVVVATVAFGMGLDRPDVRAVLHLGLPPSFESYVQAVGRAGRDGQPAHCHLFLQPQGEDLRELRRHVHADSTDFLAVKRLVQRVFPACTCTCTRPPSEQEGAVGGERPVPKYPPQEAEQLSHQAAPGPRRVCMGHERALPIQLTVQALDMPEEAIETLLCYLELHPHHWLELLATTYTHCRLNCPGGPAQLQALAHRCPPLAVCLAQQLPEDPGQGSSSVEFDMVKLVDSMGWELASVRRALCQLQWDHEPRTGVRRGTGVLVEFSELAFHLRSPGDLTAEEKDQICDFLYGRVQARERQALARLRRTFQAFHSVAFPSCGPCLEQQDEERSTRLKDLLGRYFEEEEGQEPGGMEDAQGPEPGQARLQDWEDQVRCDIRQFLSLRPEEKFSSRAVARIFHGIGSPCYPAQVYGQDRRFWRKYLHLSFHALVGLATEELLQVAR

Test [3] addresses T3, FLAG-RECQ4 P466L mutant (human) (UniProt O94761).
T3 sequence: T1 sequence with P466L

Positions count from the first letter of the chain named. These are yes or no findings as the source states them, for the method shown. In cells and extracts the contact can be indirect. Some results given as binding are weak or reduced against the parent protein; the word gives no strength. Where a sequence is shown, tags or fusion partners need not be part of it.

For “Mitochondrial membrane protein p32 (from UniProt Q07021 74-282)”, the binding entry in test [1] is “binds”.

B1: TWINKLE mitochondrial replication helicase (enzyme, UniProt Q96RR1 32-684)
chain: APGPPRRRYRKETLQALDMPVLPVTATEIRQYLRGHGIPFQDGHSCLRALSPFAESSQLKGQTGVTTSFSLFIDKTTGHFLCMTSLAEGSWEDFQASVEGRGDGAREGFLLSKAPEFEDSEEVRRIWNRAIPLWELPDQEEVQLADTMFGLTKVTDDTLKRFSVRYLRPARSLVFPWFSPGGSGLRGLKLLEAKCQGDGVSYEETTIPRPSAYHNLFGLPLISRRDAEVVLTSRELDSLALNQSTGLPTLTLPRGTTCLPPALLPYLEQFRRIVFWLGDDLRSWEAAKLFARKLNPKRCFLVRPGDQQPRPLEALNGGFNLSRILRTALPAWHKSIVSFRQLREEVLGELSNVEQAAGLRWSRFPDLNRILKGHRKGELTVFTGPTGSGKTTFISEYALDLCSQGVNTLWGSFEISNVRLARVMLTQFAEGRLEDQLDKYDHWADRFEDLPLYFMTFHGQQSIRTVIDTMQHAVYVYDICHVIIDNLQFMMGHEQLSTDRIAAQDYIIGVFRKFATDNNCHVTLVIHPRKEDDDKELQTASIFGSAKASQEADNVLILQDRKLVTGPGKRYLQVSKNRFDGDVGVFPLEFNKNSLTFSIPPKNKARLKKIKDDTGPVAKKPSSGKKGATTQNSEICSGQAPTPDQPDTSKRSK
As for B1, the binding entry in test [2], in test [3] and in test [1] was “binds” in each case.
